Chains of the proteins cited; added tags and fusions are not shown.
UniProt Q9CQW9: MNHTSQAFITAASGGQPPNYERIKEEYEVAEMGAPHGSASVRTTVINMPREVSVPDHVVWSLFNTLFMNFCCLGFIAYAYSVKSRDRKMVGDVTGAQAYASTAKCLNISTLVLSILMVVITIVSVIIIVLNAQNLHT

In PMC11758215:

Target: T1, S100 calcium-binding protein A11 (mouse (endogenous in 4T1)) (UniProt P50543)
T1 sequence: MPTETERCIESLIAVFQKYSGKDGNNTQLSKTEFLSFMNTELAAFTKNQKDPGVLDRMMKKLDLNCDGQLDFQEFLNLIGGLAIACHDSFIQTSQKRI
Assay: affinity purification with mass spectrometry; 4T1 cell lysates incubated with S100A11 antibodies, protein A/G agarose beads, washed, eluted, LC-MS/MS (Orbitrap Eclipse), search against UniProtKB Mus musculus, FDR 1%

IFITM3 (from UniProt Q9CQW9 1-137) was tested. Which binding did it give?
The binding was “binds”.

Results are given in words; binding and its absence hold for the method and conditions named. In cells and extracts the contact can be indirect. Here binding means that the protein was enriched with, or labelled near, the bait; the list need not be complete.
